No constants are given. Whether binding was seen depends on the method and setting. In cells and extracts the contact can be indirect. Some entries that bind do so weakly or less than the wild type.
Key:
FLAG-tagged DDX3X = FLAG-tagged DDX3X (UniProt O00571); experiment: co-IP
[1] = target: GFP-tagged USP7, full length (UniProt Q93009); experiment: co-IP

By UniProt entry, the sequences of proteins in these tests, tags left out.
UniProt O00571: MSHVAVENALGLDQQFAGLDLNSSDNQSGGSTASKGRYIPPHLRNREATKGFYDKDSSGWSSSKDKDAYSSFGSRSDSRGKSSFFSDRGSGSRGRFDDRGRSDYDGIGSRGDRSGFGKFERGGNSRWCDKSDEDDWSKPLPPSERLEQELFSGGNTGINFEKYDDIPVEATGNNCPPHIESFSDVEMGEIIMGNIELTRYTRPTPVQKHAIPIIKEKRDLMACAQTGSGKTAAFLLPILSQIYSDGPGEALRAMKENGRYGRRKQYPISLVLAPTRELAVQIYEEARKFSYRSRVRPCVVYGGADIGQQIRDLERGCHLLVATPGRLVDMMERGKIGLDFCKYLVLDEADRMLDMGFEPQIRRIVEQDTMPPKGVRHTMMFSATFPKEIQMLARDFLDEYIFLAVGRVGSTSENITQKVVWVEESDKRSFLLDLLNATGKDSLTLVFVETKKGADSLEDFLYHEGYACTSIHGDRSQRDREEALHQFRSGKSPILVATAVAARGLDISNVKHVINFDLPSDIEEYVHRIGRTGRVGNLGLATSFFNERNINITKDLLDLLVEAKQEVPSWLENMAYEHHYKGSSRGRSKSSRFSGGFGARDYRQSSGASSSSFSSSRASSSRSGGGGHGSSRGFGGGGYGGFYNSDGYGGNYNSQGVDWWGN
UniProt Q93009: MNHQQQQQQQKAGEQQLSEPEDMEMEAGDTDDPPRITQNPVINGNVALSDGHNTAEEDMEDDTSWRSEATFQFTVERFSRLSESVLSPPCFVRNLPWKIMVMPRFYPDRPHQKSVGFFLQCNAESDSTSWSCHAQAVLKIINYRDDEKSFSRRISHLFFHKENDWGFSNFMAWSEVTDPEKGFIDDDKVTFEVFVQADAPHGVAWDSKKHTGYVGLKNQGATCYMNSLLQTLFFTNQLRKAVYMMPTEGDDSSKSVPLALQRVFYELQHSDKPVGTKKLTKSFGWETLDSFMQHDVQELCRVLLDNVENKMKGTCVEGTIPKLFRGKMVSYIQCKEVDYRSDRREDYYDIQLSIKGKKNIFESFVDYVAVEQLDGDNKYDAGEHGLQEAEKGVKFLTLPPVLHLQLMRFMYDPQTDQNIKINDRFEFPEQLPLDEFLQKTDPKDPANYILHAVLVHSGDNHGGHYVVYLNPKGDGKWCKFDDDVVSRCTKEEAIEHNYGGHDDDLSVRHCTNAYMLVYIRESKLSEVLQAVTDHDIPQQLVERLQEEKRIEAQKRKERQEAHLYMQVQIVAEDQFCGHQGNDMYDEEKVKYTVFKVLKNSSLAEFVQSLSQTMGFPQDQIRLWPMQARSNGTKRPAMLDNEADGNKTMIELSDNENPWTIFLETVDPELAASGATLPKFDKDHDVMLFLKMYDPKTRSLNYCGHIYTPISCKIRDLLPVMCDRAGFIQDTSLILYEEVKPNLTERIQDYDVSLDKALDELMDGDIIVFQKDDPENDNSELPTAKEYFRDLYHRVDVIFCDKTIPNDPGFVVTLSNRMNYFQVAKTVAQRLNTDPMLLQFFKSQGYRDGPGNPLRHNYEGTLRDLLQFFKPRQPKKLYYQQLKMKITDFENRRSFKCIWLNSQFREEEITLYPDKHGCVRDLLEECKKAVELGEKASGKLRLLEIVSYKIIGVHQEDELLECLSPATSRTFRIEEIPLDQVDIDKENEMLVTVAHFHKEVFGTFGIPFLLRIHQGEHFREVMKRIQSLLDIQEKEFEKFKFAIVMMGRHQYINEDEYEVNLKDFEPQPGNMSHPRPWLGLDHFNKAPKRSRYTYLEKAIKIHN

Row | binding (FLAG-tagged DDX3X) | binding [1] | Substance
1 | binds |  | Endogenous USP7 (from UniProt Q93009 1-1102) (enzyme)
2 |  | binds | FLAG-tagged DDX3X (from UniProt O00571 1-662)

From article doi:10.1101/2023.01.11.523622
